# Test results taken from the supplement of paper PMC8732350.
# Structures can show the parent of a compound that is named as a salt. ± gives the standard deviation of the averaged measurements. This is one part of the list. Single values are uncertain here, since repeats match poorly.
# System: A549
# Experiment: surface PD-L1 immunofluorescence intensity relative to IFN-gamma-only control (ratio); higher = more PD-L1 expression
# Conditions: 10 µM; exposure time 24 h; IFN-gamma 100 ng/mL
row,SMILES,surface PD-L1 immunofluorescence intensity
1,COc1ccc2c(c1)c(CC(=O)OCC(=O)O)c(C)n2C(=O)c1ccc(Cl)cc1 [Acemetacin],1.01
2,Cc1cccc(C)c1NC(=O)CN1CCN(CCCC(c2ccc(F)cc2)c2ccc(F)cc2)CC1 [Lidoflazine],0.951
3,CC(=O)O[C@]1(C(C)=O)CC[C@H]2[C@@H]3C=C(C)C4=CC(=O)CC[C@]4(C)[C@H]3CC[C@@]21C [Megestrol acetate],0.995
4,CC(=O)O[C@]1(C(C)=O)CC[C@H]2[C@@H]3C=C(C)C4=CC(=O)CC[C@]4(C)[C@H]3CC[C@@]21C [Megestrol Acetate],0.97
5,Nc1nnc(-c2cccc(Cl)c2Cl)c(N)n1 [Lamotrigine],1.04
6,NC(C(=O)O)c1ccc(C(=O)O)c(C(=O)O)c1 (racemic),0.972
7,Nc1nc(=O)[nH]cc1F [Flucytosine],0.983
8,CCN1CCN(c2ccc(Nc3cc(N(C)C(=O)Nc4c(Cl)c(OC)cc(OC)c4Cl)ncn3)cc2)CC1,1.08
9,Oc1cc(O)cc(/C=C/c2ccc(O)c(O)c2)c1 [Piceatannol],0.972 ± 0.053
10,O=C1c2ccccc2CCC1CNCCc1ccc(O)cc1 (stereo not given) [HEAT hydrochloride],0.985
11,COc1cc2ncnc(Nc3ccc(O)c(Br)c3)c2cc1OC,0.933 ± 0.024
12,O=C(c1ccc(Cl)cc1Cl)n1nnc2ccccc21,0.994
13,CCCC(=O)Nc1cccc(NC(=O)c2ccccc2Br)c1,0.954
14,COc1nc(C)cnc1NS(=O)(=O)c1cccnc1-c1ccc(-c2nnco2)cc1 [Zibotentan (ZD4054)],1.11
15,N=C(N=C(N)N)N1CCOCC1 [Moroxidine hydrochloride],0.907
16,Cn1cc(/C=C/C(=O)c2cccc(F)c2)cc1/C=C/C(=O)NO,1.04
17,CC(=O)OCC(=O)[C@@]12OC3(CCCC3)O[C@@H]1C[C@H]1[C@@H]3CCC4=CC(=O)C=C[C@]4(C)[C@@]3(F)[C@@H](O)C[C@@]12C [Amcinonide],0.823
18,N[C@@H](CC(=O)N1CCn2c(nnc2C(F)(F)F)C1)Cc1cc(F)c(F)cc1F [Sitagliptin phosphate monohydrate],0.955
19,Nc1ccccc1NC(=O)CCCCCCC(=O)Nc1ccccc1,1.02
20,C[C@@H]1O[C@@H](O[C@H]2[C@H](Oc3cc(O)c4c(c3)O[C@H](c3ccc(O)cc3)CC4=O)O[C@H](CO)[C@@H](O)[C@@H]2O)[C@H](O)[C@H](O)[C@H]1O [Naringin (Naringoside)],1.05

row,SMILES,surface PD-L1 immunofluorescence intensity
1,C[C@H](CCC(=O)O)[C@H]1CC[C@H]2[C@@H]3C[C@H](O)[C@@H]4C[C@H](O)CC[C@]4(C)[C@H]3CC[C@]12C [Hyodeoxycholic acid (HDCA)],0.997
2,O=C(Nc1ccccc1)OCC(CN1CCCCC1)OC(=O)Nc1ccccc1 (stereo not given) [Diperodon hydrochloride],0.984
3,CC1(C)C(=O)N(CCN2CCC(C(=O)c3ccc(F)cc3)CC2)c2ccccc21,0.794
4,CCN(CC)CC1CCCCN1CC(=O)N1c2ccccc2C(=O)Nc2cccnc21 (stereo not given),0.91
5,C[C@@H]1O[C@@H](OC[C@H]2O[C@@H](Oc3c(-c4ccc(O)c(O)c4)oc4cc(O)cc(O)c4c3=O)[C@H](O)[C@@H](O)[C@@H]2O)[C@H](O)[C@H](O)[C@H]1O [Rutin (Rutoside)],1.1
6,CCCC(=O)Nc1ccc(OCC(O)CNC(C)C)c(C(C)=O)c1 (stereo not given) [Acebutolol hydrochloride],0.921
7,COc1ccnc2[nH]cc(C(=O)C(=O)N3CCN(C(=O)c4ccccc4)C[C@H]3C)c12,1
8,CO/N=C(\C(=O)N[C@@H]1C(=O)N2C(C(=O)O)=C(CSC(=O)c3ccco3)CS[C@H]12)c1csc(N)n1 [Ceftiofur HCl],1
9,N[C@@H]1CCN(O)C1=O,1.09
10,CC(=O)Nc1ccc(OCC(O)CNC(C)C)cc1 (stereo not given) [Practolol],1.06
11,O=C1NN(C(=O)Nc2ccc(Br)cc2)[C@@H](c2ccccc2)[C@@H]1c1ccccc1,0.983
12,CN1[C@@H]2CC[C@H]1C[C@@H](OC(c1ccccc1)c1ccccc1)C2 [Benztropine mesylate],1.035 ± 0.0082
13,CNCCCCOc1ccccc1Cc1ccccc1 [Bifemelane hydrochloride],0.857
14,CCCCOC(=O)c1ccc(O)cc1 [Butylparaben],1.08
15,CCCc1nc2c(C)cc(-c3nc4ccccc4n3C)cc2n1Cc1ccc(-c2ccccc2C(=O)O)cc1 [Telmisartan],0.995
16,CC(=O)/N=c1/sc(S(N)(=O)=O)nn1C [Methazolamide],0.898
17,CC1=CC(=O)c2ccccc2C1=O [Menadione],1.03
18,Nc1nccc(-c2ccc3noc(-c4ccc(Cl)cc4)c3c2)n1 [PIM 1 Inhibitor 2],0.976
19,CCCCC1C(=O)N(c2ccccc2)N(c2ccccc2)C1=O [Phenylbutazone],0.992
20,"Nc1ncnc2c1nc(Br)n2[C@@H]1O[C@@H]2COP(=O)(O)O[C@H]2[C@H]1O [8-Bromo-cAMP, sodium salt]",0.92

# Reformatted with tabs: part of the list above.
row	SMILES	surface PD-L1 immunofluorescence intensity
5	C[C@@H]1O[C@@H](OC[C@H]2O[C@@H](Oc3c(-c4ccc(O)c(O)c4)oc4cc(O)cc(O)c4c3=O)[C@H](O)[C@@H](O)[C@@H]2O)[C@H](O)[C@H](O)[C@H]1O [Rutin (Rutoside)]	1.1
14	CCCCOC(=O)c1ccc(O)cc1 [Butylparaben]	1.08
16	CC(=O)/N=c1/sc(S(N)(=O)=O)nn1C [Methazolamide]	0.898
